Values of other authors as cited in article PMC8302504, “Efficacy of Fenfluramine and Norfenfluramine Enantiomers and Various Antiepileptic Drugs in a Zebrafish Model of Dravet Syndrome” (Neurochemical Research, 2021).

Settings: 5 dpf zebrafish larvae, 1 h incubation with 15 µg/mL; cited from earlier work

## CN(C)CCOC(c1ccccc1)c1ccccc1 [diphenhydramine]
  head uptake (recovered concentration): 115.5 µg/g
